Results as given in PubChem BioAssay (EPA / NIEHS).
The shares of active, inactive and inconclusive entries below differ from those in the screen. For some assays here: A potency beside an inconclusive call is a rough fit, not a confirmed value. The source made the active and inactive calls. The calls were made as follows: active = hit-call score of the fitted dose curve at least 0.9, where 1 is the maximum; inconclusive = response in the unintended direction; inactive = score below 0.9.

Protein sequences, listed by entry. Tags and fused reporters are not part of them. Lines headed by an entry give the natural chain unless they say otherwise; changes in a name come on top.
UniProt Q9HCS2: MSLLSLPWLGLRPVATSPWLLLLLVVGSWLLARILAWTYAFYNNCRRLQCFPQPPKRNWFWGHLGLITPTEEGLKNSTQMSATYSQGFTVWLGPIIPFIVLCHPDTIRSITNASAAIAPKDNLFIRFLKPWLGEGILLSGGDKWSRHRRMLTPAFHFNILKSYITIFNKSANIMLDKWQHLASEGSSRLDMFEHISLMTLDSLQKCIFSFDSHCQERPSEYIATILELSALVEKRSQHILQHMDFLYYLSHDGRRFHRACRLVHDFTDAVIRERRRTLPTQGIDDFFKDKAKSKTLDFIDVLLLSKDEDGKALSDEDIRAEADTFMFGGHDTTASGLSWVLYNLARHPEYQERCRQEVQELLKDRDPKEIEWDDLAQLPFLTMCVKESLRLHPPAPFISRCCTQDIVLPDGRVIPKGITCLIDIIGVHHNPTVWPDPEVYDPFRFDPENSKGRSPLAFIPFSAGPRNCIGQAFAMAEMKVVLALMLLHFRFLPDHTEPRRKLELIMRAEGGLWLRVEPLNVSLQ
UniProt P11362, whole entry, looked up: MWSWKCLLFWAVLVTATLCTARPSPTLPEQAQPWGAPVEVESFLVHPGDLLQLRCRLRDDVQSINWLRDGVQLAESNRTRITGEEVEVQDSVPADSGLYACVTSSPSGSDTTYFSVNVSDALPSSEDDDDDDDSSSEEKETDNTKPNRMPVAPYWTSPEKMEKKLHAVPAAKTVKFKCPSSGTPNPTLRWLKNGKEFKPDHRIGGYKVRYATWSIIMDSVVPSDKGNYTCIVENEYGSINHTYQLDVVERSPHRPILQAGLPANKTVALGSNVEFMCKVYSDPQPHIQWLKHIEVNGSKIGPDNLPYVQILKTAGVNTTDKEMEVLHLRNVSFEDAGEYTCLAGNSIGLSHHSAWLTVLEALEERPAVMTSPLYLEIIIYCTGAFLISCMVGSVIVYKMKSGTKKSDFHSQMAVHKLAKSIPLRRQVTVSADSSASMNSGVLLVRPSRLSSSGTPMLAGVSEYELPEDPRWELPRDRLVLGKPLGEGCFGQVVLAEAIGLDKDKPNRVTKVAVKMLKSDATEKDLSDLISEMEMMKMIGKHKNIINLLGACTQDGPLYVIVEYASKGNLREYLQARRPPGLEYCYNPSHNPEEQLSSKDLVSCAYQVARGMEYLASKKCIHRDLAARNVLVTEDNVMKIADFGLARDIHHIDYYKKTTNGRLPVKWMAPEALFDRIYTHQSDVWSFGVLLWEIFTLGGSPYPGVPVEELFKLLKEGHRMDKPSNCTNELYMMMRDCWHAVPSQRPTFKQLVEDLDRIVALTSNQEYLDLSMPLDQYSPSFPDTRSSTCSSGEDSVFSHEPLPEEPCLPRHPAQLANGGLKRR
UniProt P04150: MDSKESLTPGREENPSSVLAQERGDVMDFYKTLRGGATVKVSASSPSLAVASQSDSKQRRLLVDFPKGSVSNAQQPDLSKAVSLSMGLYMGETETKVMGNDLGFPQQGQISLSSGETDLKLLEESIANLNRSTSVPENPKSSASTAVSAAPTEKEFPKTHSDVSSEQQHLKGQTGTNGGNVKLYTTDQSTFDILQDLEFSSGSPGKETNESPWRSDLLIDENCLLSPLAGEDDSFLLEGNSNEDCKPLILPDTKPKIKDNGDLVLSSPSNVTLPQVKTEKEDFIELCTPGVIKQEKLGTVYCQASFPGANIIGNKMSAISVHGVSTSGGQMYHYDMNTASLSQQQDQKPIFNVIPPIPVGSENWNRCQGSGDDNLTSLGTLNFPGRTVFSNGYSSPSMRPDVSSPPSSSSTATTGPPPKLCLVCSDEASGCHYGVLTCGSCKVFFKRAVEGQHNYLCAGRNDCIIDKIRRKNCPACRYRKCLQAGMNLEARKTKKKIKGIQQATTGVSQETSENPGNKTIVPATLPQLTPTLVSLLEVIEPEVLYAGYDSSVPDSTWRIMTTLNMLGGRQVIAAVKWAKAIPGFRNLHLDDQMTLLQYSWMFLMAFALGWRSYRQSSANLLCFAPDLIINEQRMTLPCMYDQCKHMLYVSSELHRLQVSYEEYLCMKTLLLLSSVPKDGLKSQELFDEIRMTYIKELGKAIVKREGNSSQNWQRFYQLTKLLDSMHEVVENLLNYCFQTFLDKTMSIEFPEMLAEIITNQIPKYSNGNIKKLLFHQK
UniProt P41235: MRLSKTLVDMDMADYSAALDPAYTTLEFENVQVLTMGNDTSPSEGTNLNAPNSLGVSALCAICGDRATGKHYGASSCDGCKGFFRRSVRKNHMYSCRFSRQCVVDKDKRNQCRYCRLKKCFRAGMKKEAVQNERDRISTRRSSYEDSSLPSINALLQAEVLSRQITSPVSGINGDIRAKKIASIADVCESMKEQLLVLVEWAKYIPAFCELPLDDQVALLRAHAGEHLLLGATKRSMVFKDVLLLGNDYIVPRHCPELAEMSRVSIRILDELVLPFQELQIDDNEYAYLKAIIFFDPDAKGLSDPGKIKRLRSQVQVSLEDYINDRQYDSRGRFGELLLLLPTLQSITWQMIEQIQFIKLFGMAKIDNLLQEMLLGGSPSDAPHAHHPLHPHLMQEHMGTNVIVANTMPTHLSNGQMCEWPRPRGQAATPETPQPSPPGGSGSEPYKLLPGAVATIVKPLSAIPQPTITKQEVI
UniProt P43354, whole entry, looked up: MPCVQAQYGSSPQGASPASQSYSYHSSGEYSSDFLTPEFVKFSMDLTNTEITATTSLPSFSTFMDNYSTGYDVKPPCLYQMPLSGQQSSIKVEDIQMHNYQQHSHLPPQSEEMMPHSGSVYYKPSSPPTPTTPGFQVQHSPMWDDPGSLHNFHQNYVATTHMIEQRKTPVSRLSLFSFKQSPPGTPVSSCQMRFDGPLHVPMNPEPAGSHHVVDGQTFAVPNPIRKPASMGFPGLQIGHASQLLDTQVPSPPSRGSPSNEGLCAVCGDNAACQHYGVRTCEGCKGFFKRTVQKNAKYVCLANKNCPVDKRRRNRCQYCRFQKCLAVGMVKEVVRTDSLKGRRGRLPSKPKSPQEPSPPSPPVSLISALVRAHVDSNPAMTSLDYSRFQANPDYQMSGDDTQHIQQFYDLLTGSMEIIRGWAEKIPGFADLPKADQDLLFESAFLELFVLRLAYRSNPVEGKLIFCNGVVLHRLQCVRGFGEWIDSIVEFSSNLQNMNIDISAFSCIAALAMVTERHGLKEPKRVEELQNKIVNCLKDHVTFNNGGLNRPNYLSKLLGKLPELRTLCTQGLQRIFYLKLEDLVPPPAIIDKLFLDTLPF
UniProt Q07869: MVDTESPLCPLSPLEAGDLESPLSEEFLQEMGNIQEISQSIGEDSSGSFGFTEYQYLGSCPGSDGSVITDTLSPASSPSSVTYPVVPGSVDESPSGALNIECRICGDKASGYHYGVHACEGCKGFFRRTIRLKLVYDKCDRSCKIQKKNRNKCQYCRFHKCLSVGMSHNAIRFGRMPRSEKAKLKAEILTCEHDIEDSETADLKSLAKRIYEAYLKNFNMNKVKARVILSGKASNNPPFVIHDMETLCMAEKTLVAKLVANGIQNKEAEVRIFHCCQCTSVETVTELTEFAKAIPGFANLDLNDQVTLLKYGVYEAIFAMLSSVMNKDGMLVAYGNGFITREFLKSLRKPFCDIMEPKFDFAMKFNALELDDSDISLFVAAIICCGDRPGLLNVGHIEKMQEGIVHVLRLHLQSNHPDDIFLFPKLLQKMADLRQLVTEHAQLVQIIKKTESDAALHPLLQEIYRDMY
UniProt Q03181: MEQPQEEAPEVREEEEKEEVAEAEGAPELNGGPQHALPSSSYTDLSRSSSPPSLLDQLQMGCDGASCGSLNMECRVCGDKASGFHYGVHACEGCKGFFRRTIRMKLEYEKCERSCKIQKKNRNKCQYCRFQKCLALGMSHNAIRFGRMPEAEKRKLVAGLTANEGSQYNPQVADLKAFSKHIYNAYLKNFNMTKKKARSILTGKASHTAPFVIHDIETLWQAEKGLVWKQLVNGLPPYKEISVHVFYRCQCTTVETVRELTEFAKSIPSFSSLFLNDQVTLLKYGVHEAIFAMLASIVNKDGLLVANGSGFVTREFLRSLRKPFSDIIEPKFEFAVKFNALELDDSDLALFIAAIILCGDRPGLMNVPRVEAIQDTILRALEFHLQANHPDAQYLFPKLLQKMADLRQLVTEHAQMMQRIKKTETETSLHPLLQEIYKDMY
UniProt P10827: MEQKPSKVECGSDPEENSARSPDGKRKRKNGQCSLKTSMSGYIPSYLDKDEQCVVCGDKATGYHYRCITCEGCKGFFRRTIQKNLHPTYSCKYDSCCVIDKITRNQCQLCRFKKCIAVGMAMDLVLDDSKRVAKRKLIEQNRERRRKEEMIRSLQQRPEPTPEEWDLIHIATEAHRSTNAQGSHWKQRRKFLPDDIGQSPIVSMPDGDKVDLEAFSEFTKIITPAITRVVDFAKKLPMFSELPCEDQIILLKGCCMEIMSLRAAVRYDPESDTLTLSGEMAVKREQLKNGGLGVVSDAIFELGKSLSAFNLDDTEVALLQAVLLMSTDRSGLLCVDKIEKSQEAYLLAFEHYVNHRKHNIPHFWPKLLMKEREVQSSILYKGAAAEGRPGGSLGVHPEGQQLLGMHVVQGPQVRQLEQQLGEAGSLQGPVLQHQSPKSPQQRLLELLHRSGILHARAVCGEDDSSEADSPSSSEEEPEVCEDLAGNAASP
UniProt P11473: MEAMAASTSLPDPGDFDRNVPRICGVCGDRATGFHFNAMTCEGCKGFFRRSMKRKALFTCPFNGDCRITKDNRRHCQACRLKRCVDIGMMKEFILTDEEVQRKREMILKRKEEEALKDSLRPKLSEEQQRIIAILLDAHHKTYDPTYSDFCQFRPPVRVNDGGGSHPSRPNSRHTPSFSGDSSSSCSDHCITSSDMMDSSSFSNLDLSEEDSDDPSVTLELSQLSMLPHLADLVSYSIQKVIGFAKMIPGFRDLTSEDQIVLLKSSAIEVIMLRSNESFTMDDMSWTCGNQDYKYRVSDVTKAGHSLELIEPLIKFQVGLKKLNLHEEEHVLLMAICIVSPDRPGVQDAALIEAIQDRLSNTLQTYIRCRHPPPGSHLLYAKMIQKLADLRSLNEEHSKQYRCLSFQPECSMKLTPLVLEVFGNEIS

Legend:
[1] = molecular target: human CYP4F12, CYP4F12 (gene 66002) (UniProt Q9HCS2); assay: NVS_ADME_hCYP4F12: NovaScreen (NVS) CYP450-related Enzyme Activity (ADME) Assay for human CYP4F12 (AID 2283111)
In short: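 Cell-free fluorescence assay of recombinant human CYP4F12 activity on a specific substrate, read 0.5 h after dosing. Primary screen in duplicate at 10 uM, then concentration series for actives; loss of signal fitted against acetonitrile negative control.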

[2] = molecular target: human Fibroblast Growth Factor Receptor 1 (FGFR1), FGFR1 (gene 2260) (UniProt P11362); assay: NVS_ENZ_hFGFR1: NovaScreen (NVS) Enzymatic Assay for human Fibroblast Growth Factor Receptor 1 (FGFR1) (AID 2283159);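 also: hits lower the signal so potencies describe inhibitors of the kinase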
In short: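 Cell-free recombinant kinase with fluorescent substrate, product separated by electrophoretic mobility shift; read 1 hour after dosing, loss of signal relative to DMSO. Initial screen in duplicate at 25 uM, actives followed in concentration series.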

[3] = molecular target: Glucocorticoid receptor (Homo sapiens) (UniProt P04150); assay: ATG_GR_TRANS: Attagene TRANS-FACTORIAL HepG2 Assay for human Glucocorticoid Receptor (GR) (AID 2282978); conditions: HepG2 Attagene TRANS GR reporter, mRNA transcription;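 also: activators score as hits since higher reporter transcript over DMSO is fitted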
In short: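 Measurement of GAL4-UAS-driven reporter mRNA in human HepG2 liver cells 24 h post-dosing, using RT-PCR with fluorescent labelling and capillary electrophoresis; the transfected constructs report exogenous NR-GAL4 chimera activity, fitted upward against DMSO.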

[4] = molecular target: Hepatocyte nuclear factor 4-alpha (Homo sapiens) (UniProt P41235); assay: ATG_HNF4a_TRANS: Attagene TRANS-FACTORIAL HepG2 Assay for human Hepatocyte Nuclear Factor 4 alpha (HNF4a) (AID 2282982); conditions: HepG2 HNF4a transactivation reporter, mRNA readout
In short: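 HepG2 cells transiently transfected with multiplexed GAL4-UAS reporter units responsive to chimeric NR-GAL4 proteins; compound exposure 24 h. Reporter mRNA quantified by RT-PCR, 6-FAM labelling, HpaI digestion and capillary electrophoresis; gain of signal versus DMSO baseline.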

[5] = ATG_M_06_TRANS: Attagene TRANS-FACTORIAL HepG2 Assay for M06 Transcription Factor (Internal Marker) (AID 2282983); conditions: HepG2 Attagene TRANS M06 internal marker reporter;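 also: reporter transcript level by RT-PCR then capillary electrophoresis fluorescence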
In short: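 Transfect HepG2 with MRTUs → dose compounds 24 h → isolate RNA, oligo(dT) RT → PCR with reporter primers → 6-FAM primer extension → HpaI digest → CE fragment analysis. Positive direction vs DMSO.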

[6] = molecular target: Nuclear receptor subfamily 4 group A member 2 (Homo sapiens) (UniProt P43354); assay: ATG_NURR1_TRANS: Attagene TRANS-FACTORIAL HepG2 Assay for human Nuclear Receptor Related Protein 1 (NURR1) (AID 2282985); conditions: HepG2 Attagene TRANS reporter, mRNA readout
In short: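 HepG2 cells transiently transfected with GAL4-UAS reporter units and chimeric NR-Gal4 constructs; chemical exposure 24 h. Reporter mRNA quantified by RT-PCR, fluorescent labelling and capillary electrophoresis; gain of signal fitted relative to DMSO baseline.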

[7] = molecular target: human Peroxisome Proliferator-activated Receptor alpha (PPARa), PPARA (gene 5465) (UniProt Q07869); assay: ATG_PPARa_TRANS: Attagene TRANS-FACTORIAL HepG2 Assay for human Peroxisome Proliferator-activated Receptor alpha (PPARa) (AID 2283001);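 also: potency for gain of reporter signal over DMSO so agonist or activator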
In short: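 HepG2 cells transiently transfected with multiplexed GAL4-UAS reporter units and chimeric NR-Gal4 constructs were dosed for 24 h. Reporter mRNA was measured by RT-PCR with fluorescent labelling and capillary electrophoresis; gain of signal fitted against DMSO.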

[8] = molecular target: human Peroxisome Proliferator-activated Receptor delta (PPARd), PPARD (gene 5467) (UniProt Q03181); assay: ATG_PPARd_TRANS: Attagene TRANS-FACTORIAL HepG2 Assay for human Peroxisome Proliferator-activated Receptor delta (PPARd) (AID 2283002)
In short: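 HepG2 cells transiently transfected with multiplexed GAL4-UAS reporter units and exogenous chimeric NR-Gal4 proteins; 24 h compound exposure. Reporter mRNA measured by RT-PCR, 6-FAM labelling, HpaI digestion and capillary electrophoresis; gain of signal versus DMSO.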

[9] = molecular target: human Thyroid Receptor alpha (THRa1), THRA (gene 7067) (UniProt P10827); assay: ATG_THRa1_TRANS: Attagene TRANS-FACTORIAL HepG2 Assay for human Thyroid Receptor alpha (THRa1) (AID 2283014)
In short: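 Reporter transcript induction, read by capillary electrophoresis of 6-FAM-labelled RT-PCR products, reflects activity of a transfected THRa1-Gal4 fusion in HepG2 liver cells. Cells were dosed for 24 h; activity was fitted in the positive direction against DMSO.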

[10] = molecular target: human Vitamin D Receptor (VDR), VDR (gene 7421) (UniProt P11473); assay: ATG_VDR_TRANS: Attagene TRANS-FACTORIAL HepG2 Assay for human Vitamin D Receptor (VDR) (AID 2283022)
In short: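 Steps: transfect HepG2 with GAL4-UAS-driven reporter constructs; dose compounds 24 h; isolate RNA, reverse-transcribe, PCR-amplify with 6-FAM-labelled primer extension and HpaI digestion; quantify fragments by capillary electrophoresis relative to DMSO.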

[11] = ATG_XTT_Cytotoxicity: Cytotoxicity Assessment in the Attagene TRANS-FACTORIAL HepG2 Assay (AID 2283584);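 also: cells exposed to compound for 24 h before reading; active means loss of viability signal versus DMSO baseline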
In short: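 Cells: human HepG2, transiently transfected with MRTU reporter constructs. Exposure 24 h. Readout: XTT, cell number. Baseline/neg ctrl DMSO; loss-of-signal scored.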

COC(=O)CCC(=O)OC
outcome [1]: inactive
AC50 [2]: inconclusive: 25 µM

CCN(CC)C(=S)S
AC50 [3]: inconclusive: 48.8 µM
AC50 [4]: inconclusive: 181 µM
outcome [5]: inactive
outcome [6]: inactive
AC50 [7]: inconclusive: 26.7 µM
outcome [8]: inactive
outcome [9]: inactive
AC50 [10]: inconclusive: 0.719 µM
AC50 [11]: inconclusive: 174 µM
